PubChem BioAssay AID1259308 | NCATS | 2017

Purpose: 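Genes whose loss raises luciferase production in HEK293 cells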 (primary screen)
Cell system: human HEK293 embryonic kidney cells stably expressing firefly luciferase (HEK-CMV-Luc2-Hygro)
Reagent: single siRNA against human genes, 0.8 pmol siRNA per well
Time to read-out: 72 h
Read-out: 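Reporter luminescence and viable-cell signal on separate replicate plates, given as percent of non-targeting control and median/MAD z-scores, plus per-cell luciferase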
Direction: total luciferase, z-score: higher = more reporter protein produced
Hit rule: 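Active when the median/MAD z-score for overall luciferase is greater than 3; a gene was taken forward for validation with new siRNAs if at least two of its three siRNAs passed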
Meaning of the calls: active = raised luciferase; inactive = no rise
In all, the deposit lists about 59,000 reagents; shown is a part drawn at random. About 1,510 of all reagents (2.6%) were called active. 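Calls use total luciferase alone and ignore viability, so some active siRNAs may act by altering cell number.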 Reagents against one gene are numbered here. Further read-outs or replicates are left out here.

CACNG3 #1 | total luciferase, z-score = -0.775; activity call = inactive
CACNG3 #2 | total luciferase, z-score = -0.68; activity call = inactive
CACNG3 #3 | total luciferase, z-score = -0.276; activity call = inactive
LGALSL #1 | total luciferase, z-score = -0.968; activity call = inactive
LGALSL #2 | total luciferase, z-score = 0.023; activity call = inactive
LGALSL #3 | total luciferase, z-score = -1.52; activity call = inactive
EDAR #1 | total luciferase, z-score = -1.48; activity call = inactive
EDAR #2 | total luciferase, z-score = 1.14; activity call = inactive
EDAR #3 | total luciferase, z-score = 1.15; activity call = inactive

Next part (3 carried over from the part before).
EDAR #1 | total luciferase, z-score = -1.48; activity call = inactive
EDAR #2 | total luciferase, z-score = 1.14; activity call = inactive
EDAR #3 | total luciferase, z-score = 1.15; activity call = inactive
CCDC150 #1 | total luciferase, z-score = 1.07; activity call = inactive
CCDC150 #2 | total luciferase, z-score = -1.66; activity call = inactive
CCDC150 #3 | total luciferase, z-score = 1.32; activity call = inactive
OR52N5 #1 | total luciferase, z-score = -1.39; activity call = inactive
OR52N5 #2 | total luciferase, z-score = 0.099; activity call = inactive
OR52N5 #3 | total luciferase, z-score = 1.18; activity call = inactive
CASP3 #1 | total luciferase, z-score = -2.02; activity call = inactive
CASP3 #2 | total luciferase, z-score = -1.61; activity call = inactive
CASP3 #3 | total luciferase, z-score = -2.05; activity call = inactive
NPY2R #1 | total luciferase, z-score = 0.661; activity call = inactive
NPY2R #2 | total luciferase, z-score = -0.543; activity call = inactive
NPY2R #3 | total luciferase, z-score = -0.383; activity call = inactive
